This is one part of the list.
What follows are targets tested with Cc1nc(Nc2ncc(C(=O)Nc3c(C)cccc3Cl)s2)cc(N2CCN(CCO)CC2)n1 [dasatinib] (assay: log2 fold change, soluble protein after heating vs DMSO (PISA); higher = thermal stabilisation; K562 lysate, 10 uM; active = over 0.2 and 3.5 SD of the protein, either way, in both replicates (recomputed)).
Summary of the method: (§1)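 Dounce homogenisation of K562 pellets in PBS pH 7.4 with 1 mM MgCl2 produced a crude extract, used at 1 mg/mL protein. Exposure to 10 μM compound lasted 30 min, and aliquots were then heated for 3 min across 48°C-58°C, pooled and brought to 0.5% NP-40 at 4°C. The supernatant after 21,000xg for 90 min was quantified by TMTpro 16plex LC-MS/MS with channel sums equalised. Duplicate values are given as log-two fold change in thermal stability relative to solvent controls.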

The chains behind the UniProt entries cited, without tags or fusion partners. Where a name states a change or a piece, a line headed by the entry shows the natural chain unless it says otherwise.
UniProt Q96SI1: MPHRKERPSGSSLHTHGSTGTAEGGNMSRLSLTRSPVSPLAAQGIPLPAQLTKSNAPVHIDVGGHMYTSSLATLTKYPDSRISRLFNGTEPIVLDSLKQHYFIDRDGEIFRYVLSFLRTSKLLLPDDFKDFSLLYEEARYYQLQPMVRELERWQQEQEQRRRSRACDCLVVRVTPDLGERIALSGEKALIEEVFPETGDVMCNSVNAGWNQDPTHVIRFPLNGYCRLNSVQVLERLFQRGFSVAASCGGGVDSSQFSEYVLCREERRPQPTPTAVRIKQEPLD
UniProt Q9Y6Y0: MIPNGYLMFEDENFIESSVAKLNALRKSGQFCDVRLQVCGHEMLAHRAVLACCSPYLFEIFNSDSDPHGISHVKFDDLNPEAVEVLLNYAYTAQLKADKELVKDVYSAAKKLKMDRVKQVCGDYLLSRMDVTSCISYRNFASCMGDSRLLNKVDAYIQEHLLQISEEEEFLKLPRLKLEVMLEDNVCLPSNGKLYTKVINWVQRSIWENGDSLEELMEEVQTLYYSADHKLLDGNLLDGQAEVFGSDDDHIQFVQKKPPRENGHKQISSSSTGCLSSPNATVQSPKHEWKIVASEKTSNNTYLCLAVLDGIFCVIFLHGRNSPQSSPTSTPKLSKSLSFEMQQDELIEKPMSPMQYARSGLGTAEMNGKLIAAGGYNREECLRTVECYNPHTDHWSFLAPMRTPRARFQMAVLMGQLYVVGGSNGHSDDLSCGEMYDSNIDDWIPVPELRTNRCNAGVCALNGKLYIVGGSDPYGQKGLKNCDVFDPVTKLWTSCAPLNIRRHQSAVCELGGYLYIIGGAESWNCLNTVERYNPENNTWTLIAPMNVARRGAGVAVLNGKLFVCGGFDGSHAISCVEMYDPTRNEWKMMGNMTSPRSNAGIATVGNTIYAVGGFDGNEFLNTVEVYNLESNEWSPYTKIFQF
UniProt Q96AB3: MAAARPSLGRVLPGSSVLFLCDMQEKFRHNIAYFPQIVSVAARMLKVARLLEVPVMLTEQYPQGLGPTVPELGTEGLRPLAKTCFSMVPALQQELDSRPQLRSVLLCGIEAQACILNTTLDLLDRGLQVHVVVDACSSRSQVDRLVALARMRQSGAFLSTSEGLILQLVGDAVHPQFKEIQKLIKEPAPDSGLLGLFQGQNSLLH
UniProt Q13572: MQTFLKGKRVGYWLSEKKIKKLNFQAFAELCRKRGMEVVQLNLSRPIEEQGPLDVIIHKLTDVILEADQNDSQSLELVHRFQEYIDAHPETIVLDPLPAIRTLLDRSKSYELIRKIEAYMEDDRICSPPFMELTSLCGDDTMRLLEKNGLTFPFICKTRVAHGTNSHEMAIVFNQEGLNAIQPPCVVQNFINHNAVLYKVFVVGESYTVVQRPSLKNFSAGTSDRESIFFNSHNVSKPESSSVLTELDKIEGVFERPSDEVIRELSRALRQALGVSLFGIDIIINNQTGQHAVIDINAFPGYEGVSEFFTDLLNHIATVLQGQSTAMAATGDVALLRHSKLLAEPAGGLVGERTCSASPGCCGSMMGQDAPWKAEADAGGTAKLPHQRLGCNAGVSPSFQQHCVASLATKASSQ
UniProt Q9BW62: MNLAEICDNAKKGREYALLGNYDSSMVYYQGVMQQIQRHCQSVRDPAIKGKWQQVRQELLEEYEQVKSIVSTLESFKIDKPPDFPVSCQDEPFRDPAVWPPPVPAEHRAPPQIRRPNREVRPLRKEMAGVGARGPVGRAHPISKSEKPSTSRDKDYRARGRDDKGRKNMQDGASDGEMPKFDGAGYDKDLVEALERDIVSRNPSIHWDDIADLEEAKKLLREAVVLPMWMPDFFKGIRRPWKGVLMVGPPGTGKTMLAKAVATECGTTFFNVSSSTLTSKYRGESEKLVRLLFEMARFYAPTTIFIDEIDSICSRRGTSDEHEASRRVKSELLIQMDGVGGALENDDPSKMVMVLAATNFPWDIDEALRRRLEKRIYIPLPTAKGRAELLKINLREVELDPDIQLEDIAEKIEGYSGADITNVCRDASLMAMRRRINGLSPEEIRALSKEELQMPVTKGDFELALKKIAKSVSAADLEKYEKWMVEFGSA
UniProt Q9NV88, whole entry, looked up: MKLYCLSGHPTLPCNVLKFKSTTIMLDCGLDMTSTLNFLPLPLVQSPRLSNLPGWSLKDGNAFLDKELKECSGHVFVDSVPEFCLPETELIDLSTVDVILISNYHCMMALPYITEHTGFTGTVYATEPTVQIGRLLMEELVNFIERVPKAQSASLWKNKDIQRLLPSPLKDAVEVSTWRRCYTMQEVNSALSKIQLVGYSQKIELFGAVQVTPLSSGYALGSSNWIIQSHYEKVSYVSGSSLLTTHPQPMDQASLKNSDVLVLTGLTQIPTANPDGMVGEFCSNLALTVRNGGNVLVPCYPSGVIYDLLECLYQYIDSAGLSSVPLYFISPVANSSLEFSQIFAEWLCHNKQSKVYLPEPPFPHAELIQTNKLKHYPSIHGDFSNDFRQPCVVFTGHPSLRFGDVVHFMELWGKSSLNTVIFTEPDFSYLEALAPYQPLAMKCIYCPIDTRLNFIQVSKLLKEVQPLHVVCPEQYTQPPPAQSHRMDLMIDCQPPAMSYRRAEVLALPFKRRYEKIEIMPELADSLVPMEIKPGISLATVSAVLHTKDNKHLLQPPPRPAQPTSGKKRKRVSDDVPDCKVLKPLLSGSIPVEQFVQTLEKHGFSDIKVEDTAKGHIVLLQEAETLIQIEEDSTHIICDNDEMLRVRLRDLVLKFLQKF
UniProt P05161, whole entry, looked up: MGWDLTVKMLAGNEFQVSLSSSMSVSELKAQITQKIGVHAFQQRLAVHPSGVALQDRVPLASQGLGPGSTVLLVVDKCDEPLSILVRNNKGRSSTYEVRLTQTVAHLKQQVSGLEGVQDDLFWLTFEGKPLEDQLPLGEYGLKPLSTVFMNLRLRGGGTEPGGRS
UniProt P53990, whole entry, looked up: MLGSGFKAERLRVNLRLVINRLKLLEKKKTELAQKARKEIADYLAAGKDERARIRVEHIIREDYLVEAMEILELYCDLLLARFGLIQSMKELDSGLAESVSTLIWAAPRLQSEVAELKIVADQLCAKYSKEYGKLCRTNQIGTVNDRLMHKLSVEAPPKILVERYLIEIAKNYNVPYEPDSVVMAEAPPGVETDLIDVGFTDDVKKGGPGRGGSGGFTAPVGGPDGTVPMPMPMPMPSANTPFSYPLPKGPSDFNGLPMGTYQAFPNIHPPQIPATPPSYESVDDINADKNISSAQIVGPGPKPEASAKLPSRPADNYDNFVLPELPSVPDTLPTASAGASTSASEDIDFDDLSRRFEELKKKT
UniProt P08648, whole entry, looked up: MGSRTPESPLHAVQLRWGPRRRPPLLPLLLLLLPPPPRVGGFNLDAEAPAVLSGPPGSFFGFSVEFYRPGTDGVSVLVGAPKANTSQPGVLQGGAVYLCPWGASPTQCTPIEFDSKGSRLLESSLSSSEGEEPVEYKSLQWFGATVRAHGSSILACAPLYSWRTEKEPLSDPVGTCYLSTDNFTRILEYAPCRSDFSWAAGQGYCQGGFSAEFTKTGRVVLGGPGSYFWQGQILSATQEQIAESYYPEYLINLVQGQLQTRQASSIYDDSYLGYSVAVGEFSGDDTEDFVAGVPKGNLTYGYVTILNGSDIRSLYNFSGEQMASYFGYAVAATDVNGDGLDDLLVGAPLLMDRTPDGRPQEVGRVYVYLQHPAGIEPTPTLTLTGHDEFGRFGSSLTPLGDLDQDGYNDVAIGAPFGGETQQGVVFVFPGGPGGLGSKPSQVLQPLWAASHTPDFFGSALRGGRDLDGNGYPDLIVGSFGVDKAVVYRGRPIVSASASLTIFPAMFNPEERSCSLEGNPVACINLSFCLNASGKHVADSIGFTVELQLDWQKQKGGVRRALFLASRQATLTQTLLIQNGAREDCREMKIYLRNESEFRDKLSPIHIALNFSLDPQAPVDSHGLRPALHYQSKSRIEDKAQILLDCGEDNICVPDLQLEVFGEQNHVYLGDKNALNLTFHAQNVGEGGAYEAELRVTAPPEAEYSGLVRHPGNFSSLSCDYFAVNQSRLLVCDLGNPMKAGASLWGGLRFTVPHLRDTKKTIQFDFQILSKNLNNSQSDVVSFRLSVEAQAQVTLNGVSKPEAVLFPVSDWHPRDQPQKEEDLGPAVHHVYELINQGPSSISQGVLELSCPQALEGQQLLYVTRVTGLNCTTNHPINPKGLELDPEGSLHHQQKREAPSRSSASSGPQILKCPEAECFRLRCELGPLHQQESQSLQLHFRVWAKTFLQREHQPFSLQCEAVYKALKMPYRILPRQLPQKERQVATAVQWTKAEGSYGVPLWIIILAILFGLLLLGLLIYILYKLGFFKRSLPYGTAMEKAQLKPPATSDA
UniProt Q9H1K1: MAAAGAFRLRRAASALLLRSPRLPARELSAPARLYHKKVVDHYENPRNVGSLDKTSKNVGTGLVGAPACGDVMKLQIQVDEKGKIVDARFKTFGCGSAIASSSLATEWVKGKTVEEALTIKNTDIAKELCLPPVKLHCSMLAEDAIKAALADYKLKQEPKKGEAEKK
UniProt Q6P9B9, whole entry, looked up: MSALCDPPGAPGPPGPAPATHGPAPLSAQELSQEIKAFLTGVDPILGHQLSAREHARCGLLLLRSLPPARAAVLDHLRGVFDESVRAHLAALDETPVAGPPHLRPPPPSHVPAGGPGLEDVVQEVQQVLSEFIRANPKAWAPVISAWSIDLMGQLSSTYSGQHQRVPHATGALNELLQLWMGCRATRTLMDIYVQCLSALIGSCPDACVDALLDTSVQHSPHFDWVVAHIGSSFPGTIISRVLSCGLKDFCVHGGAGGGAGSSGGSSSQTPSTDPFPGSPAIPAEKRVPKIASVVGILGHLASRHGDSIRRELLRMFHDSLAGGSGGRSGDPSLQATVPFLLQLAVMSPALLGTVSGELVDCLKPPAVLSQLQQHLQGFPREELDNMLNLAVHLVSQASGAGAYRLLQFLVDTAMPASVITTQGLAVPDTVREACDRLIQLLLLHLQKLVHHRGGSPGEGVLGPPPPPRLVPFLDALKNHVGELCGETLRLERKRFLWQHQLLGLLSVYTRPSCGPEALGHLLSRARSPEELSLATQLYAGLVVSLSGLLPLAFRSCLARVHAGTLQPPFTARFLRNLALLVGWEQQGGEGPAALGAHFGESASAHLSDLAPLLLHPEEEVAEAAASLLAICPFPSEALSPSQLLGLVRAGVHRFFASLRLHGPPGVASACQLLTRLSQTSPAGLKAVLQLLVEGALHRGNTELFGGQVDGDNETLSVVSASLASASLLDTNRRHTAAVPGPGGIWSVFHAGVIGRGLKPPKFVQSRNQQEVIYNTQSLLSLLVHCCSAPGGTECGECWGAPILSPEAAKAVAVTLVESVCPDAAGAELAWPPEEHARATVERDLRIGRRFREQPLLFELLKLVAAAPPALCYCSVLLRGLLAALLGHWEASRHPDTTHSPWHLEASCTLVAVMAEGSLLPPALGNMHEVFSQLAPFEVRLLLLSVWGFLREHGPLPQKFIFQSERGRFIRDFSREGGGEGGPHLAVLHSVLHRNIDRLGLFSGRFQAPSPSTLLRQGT
UniProt Q75QN2, whole entry, looked up: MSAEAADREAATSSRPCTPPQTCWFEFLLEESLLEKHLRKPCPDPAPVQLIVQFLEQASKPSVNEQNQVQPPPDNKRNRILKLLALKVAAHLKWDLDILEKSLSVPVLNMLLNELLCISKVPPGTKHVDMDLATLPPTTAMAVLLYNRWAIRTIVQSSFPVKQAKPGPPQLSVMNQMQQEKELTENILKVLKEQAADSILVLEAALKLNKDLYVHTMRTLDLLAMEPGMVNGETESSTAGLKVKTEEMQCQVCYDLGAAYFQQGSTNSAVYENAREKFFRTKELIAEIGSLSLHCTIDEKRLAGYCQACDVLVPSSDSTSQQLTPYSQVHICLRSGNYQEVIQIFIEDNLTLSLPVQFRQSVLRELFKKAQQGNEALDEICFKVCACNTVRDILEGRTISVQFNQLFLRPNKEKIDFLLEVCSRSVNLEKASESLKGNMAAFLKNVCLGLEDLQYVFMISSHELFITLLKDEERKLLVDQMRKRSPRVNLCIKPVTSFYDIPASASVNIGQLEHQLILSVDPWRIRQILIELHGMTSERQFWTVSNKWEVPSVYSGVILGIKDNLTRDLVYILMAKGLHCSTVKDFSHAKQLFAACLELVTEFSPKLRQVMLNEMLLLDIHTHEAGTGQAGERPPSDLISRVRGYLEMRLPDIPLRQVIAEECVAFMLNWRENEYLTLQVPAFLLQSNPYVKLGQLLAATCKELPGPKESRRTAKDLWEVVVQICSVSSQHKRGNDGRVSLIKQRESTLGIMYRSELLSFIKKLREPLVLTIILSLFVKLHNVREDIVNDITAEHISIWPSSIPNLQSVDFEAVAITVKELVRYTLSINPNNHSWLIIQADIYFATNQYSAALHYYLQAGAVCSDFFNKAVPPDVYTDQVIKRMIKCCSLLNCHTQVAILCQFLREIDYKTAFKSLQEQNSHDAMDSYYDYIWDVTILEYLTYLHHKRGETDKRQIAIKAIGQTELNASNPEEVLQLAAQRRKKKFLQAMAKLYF

log2 fold change, inactive:
ITPKA (UniProt P23677) -0.064
KCTD15 (UniProt Q96SI1) 0.082
IPO4 isoform 2 (UniProt Q8TEX9) 0.035
IVNS1ABP (UniProt Q9Y6Y0) 0.011
KAT8 (UniProt Q9H7Z6) 0.037
KCMF1 (UniProt Q9P0J7) -0.061
ITGAV (UniProt P06756) 0.046
INTS14 (UniProt Q96SY0) -0.038
ISOC2 (UniProt Q96AB3) 0.026
KCTD5 (UniProt Q9NXV2) -0.092
ITPK1 (UniProt Q13572) 0.047
KATNAL1 (UniProt Q9BW62) 0.092
INTS9 (UniProt Q9NV88) -0.041
IQGAP1 (UniProt P46940) -0.012
IRGQ (UniProt Q8WZA9) 0.035
ISG15 (UniProt P05161) -0.03
IST1 (UniProt P53990) -0.035
INTS4 (UniProt Q96HW7) -0.019
KBTBD2 (UniProt Q8IY47) 0.012
KBTBD4 isoform 2 (UniProt Q9NVX7) -0.017
KARS1 (UniProt Q15046) -0.031
ITSN2 (UniProt Q9NZM3) -0.069
KATNA1 (UniProt O75449) 0.003
ITGA5 (UniProt P08648) 0.008
KCTD2 (UniProt Q14681) 0.002
ISCU (UniProt Q9H1K1) 0.033
KAT2A (UniProt Q92830) 0.03
JUND (UniProt P17535) 0.013
ITSN1 isoform 8 (UniProt Q15811) -0.035
INTS5 (UniProt Q6P9B9) -0.012
KANSL3 (UniProt Q9P2N6) -0.143
IQSEC1 (UniProt Q6DN90) 0.04
ITPA (UniProt Q9BY32) 0.009
INTS8 (UniProt Q75QN2) -0.072
KDELR2 (UniProt P33947) 0
IP6K1 (UniProt Q92551) -0.009
IRF3 (UniProt Q14653) -0.017
IWS1 (UniProt Q96ST2) 0.026
KCNK5 (UniProt O95279) 0.121

The targets below were run with Cc1ncc(-c2ccnc(Nc3ccc(S(C)(=O)=O)cc3)n2)n1C(C)C in the same assay as above.
Summary of the method: as §1

log2 fold change, inactive:
ITPKA (UniProt P23677) -0.001
KCTD15 (UniProt Q96SI1) -0.118
IPO4 isoform 2 (UniProt Q8TEX9) 0.001
IVNS1ABP (UniProt Q9Y6Y0) -0.048
KAT8 (UniProt Q9H7Z6) -0.008
KCMF1 (UniProt Q9P0J7) -0.025
ITGAV (UniProt P06756) -0.001
INTS14 (UniProt Q96SY0) -0.023
ISOC2 (UniProt Q96AB3) 0.091
KCTD5 (UniProt Q9NXV2) 0.066
ITPK1 (UniProt Q13572) 0.035
KATNAL1 (UniProt Q9BW62) -0.18
INTS9 (UniProt Q9NV88) -0.018
IQGAP1 (UniProt P46940) -0.01
IRGQ (UniProt Q8WZA9) 0.053
ISG15 (UniProt P05161) -0.013
IST1 (UniProt P53990) 0.008
INTS4 (UniProt Q96HW7) -0.023
KBTBD2 (UniProt Q8IY47) 0.006
KBTBD4 isoform 2 (UniProt Q9NVX7) -0.086
KARS1 (UniProt Q15046) -0.029
ITSN2 (UniProt Q9NZM3) -0.043
KATNA1 (UniProt O75449) -0.053
ITGA5 (UniProt P08648) 0.002
KCTD2 (UniProt Q14681) -0.023
ISCU (UniProt Q9H1K1) 0.011
KAT2A (UniProt Q92830) -0.085
JUND (UniProt P17535) 0.019
ITSN1 isoform 8 (UniProt Q15811) 0.036
INTS5 (UniProt Q6P9B9) 0.062
KANSL3 (UniProt Q9P2N6) 0.018
IQSEC1 (UniProt Q6DN90) -0.176
ITPA (UniProt Q9BY32) 0.031
INTS8 (UniProt Q75QN2) 0.049
KDELR2 (UniProt P33947) 0.011
IP6K1 (UniProt Q92551) 0.061
IRF3 (UniProt Q14653) -0.003
IWS1 (UniProt Q96ST2) 0.002
KCNK5 (UniProt O95279) -0.143

Reference: the supplement of paper PMC10849652
